# Screening data

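Agonist-bound vitamin D receptor ligand-binding domain with a coregulator peptide; Texas Red fluorescence polarization tracks loss of the receptor–coactivator contact after 2 hours at room temperature. Five-point series from about 0.09 to 57 µM. Potency is the fitted concentration giving half of the maximal inhibition; a lower value means a stronger inhibitor. Calls follow a score built from curve class and fitted potency, where 0 is inactive, 1–39 inconclusive and 40–100 active; every row here is inconclusive, across full, partial and single-point curves.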

Values are in µM. All entries here are filed as inconclusive. These entries are mostly ones the record files as inconclusive; other results of the assay are not listed here. Potencies fitted to partial, single-point or poorly fitting curves are rough. Some entries filed as inconclusive have a full curve. Activity scores are not listed here.

- COC(=O)c1ccc(Cn2cc(/C=C\[N+](=O)[O-])c3ccccc32)o1 [agonist-bound VDR ligand-binding domain] | potency 3.162 µM (inhibitor, single point)
- O=C(O)c1ccc(S(=O)(=O)c2ccc([N+](=O)[O-])cc2[N+](=O)[O-])cc1 [agonist-bound VDR ligand-binding domain] | potency 3.162 µM (inhibitor, partial curve)
- O=C(CCN1CCN(c2ccc([N+](=O)[O-])cc2)CC1)c1ccc(Cl)cc1 [agonist-bound VDR ligand-binding domain] | potency 7.943 µM (inhibitor, partial curve)
- CCN(c1ccccc1)S(=O)(=O)c1ccc(NC(=O)c2nc(S(C)(=O)=O)ncc2Cl)cc1 [agonist-bound VDR ligand-binding domain] | potency 3.548 µM (inhibitor, single point)
- O=C(CSc1nc2cc(S(=O)(=O)N3CCOCC3)ccc2o1)Nc1c(F)cccc1F [agonist-bound VDR ligand-binding domain] | potency 7.943 µM (inhibitor, partial curve)
- CCOC(=O)C1=C(C)N=C2SC(C(=O)OC)=CC(=O)N2C1c1ccc(F)cc1 (configuration not stated) [agonist-bound VDR ligand-binding domain] | potency 7.943 µM (inhibitor, full curve)
- CCOC(=O)N1C(=O)[C@](CC)(c2ccccc2)N1C(=O)OCC [agonist-bound VDR ligand-binding domain] | potency 25.12 µM (inhibitor, partial curve)
- Cc1ccc(-c2ccc(/C=C3\C(=O)ON=C3c3ccccc3)o2)c([N+](=O)[O-])c1 [agonist-bound VDR ligand-binding domain] | potency 0.7079 µM (inhibitor, full curve, poor fit)
- CCOc1cc(/C=C2\C(=O)ON=C2c2ccccc2)cc(Br)c1O [agonist-bound VDR ligand-binding domain] | potency 1.995 µM (inhibitor, partial curve)
- COC(=O)[C@@H]1[C@@H](C#N)C2(c3ccccc3-c3ccccc32)N(c2ccc(Cl)cc2)N1C#N [agonist-bound VDR ligand-binding domain] | potency 4.467 µM (inhibitor, single point)
- O=C(O)c1cc(/C=C/C(=O)c2cc(F)ccc2O)c2c(c1)COCO2 [agonist-bound VDR ligand-binding domain] | potency 4.467 µM (inhibitor, single point)
- COc1cc(/C=C2\C(=O)N(c3ccc(S(N)(=O)=O)cc3)N=C2C)ccc1OC(=O)c1ccco1 [agonist-bound VDR ligand-binding domain] | potency 14.13 µM (inhibitor, partial curve)

The last 2 entries again:

| compound | condition | potency (µM) | curve |
|---|---|---|---|
| `O=C(O)c1cc(/C=C/C(=O)c2cc(F)ccc2O)c2c(c1)COCO2` | agonist-bound VDR ligand-binding domain | 4.467 | inhibitor, single point |
| `COc1cc(/C=C2\C(=O)N(c3ccc(S(N)(=O)=O)cc3)N=C2C)ccc1OC(=O)c1ccco1` | agonist-bound VDR ligand-binding domain | 14.13 | inhibitor, partial curve |

Source: PubChem BioAssay AID602201 (NCATS, 2012).